Reference: patent publication US20220146519A1 (SEOUL NATIONAL UNIVERSITY HOSPITAL, priority 2019, published 2022)

Experiment: peptide made by a vendor
Conditions: conjugation step

## FITC-D-[c(RGDfK)]2
  final HPLC purity: at least 95% purity
